B1: NOP58 Ribonucleoprotein (protein, UniProt Q6DFW4 1-536)
chain: MLVLFETSVGYAIFKVLNEKKLQEVDSLWKEFETPEKANKIVKLKHFEKFQDTAEALAAFTALMEGKINKQLKKVLKKIVKEAHEPLAVADAKLGGVIKEKLNLSCIHSPVVNELMRGIRSQMDGLIPGVEPREMAAMCLGLAHSLSRYRLKFSADKVDTMIVQAISLLDDLDKELNNYIMRCREWYGWHFPELGKIISDNLTYCKCLQKVGDRKNYASASLSEFLSEEVEAEVKAAAEISMGTEVSEEDICNILHLCTQVIEISEYRTQLYEYLQNRMMAIAPNVTVMVGELVGARLIAHAGSLLNLAKHAASTVQILGAEKALFRALKSRRDTPKYGLIYHASLVGQSSPKHKGKISRMLAAKTVLAIRYDAFGEDSSSAMGIENRAKLEARLRILEDRGIRKISGTGKALAKAEKYEHKSEVKTYDPSGDSTLPTCSKKRKIEEVDKEDEITEKKAKKAKIKIKAEVEEEMEEEEAEEEQVVEEEPTVKKKKKKDKKKHIKEEPLSEEEPCTSTAVPSPEKKKKKKKKKDAED
B2: T-cell-specific guanine nucleotide triphosphate-binding protein 1 (protein, UniProt Q62293 1-415)
chain: MAWASSFDAFFKNFKRESKIISEYDITLIMTYIEENKLQKAVSVIEKVLRDIESAPLHIAVTGETGAGKSTFINTLRGVGHEEKGAAPTGAIETTMKRTPYPHPKLPNVTIWDLPGIGTTNFTPQNYLTEMKFGEYDFFIIISATRFKENDAQLAKAIAQMGMNFYFVRTKIDSDLDNEQKFKPKSFNKEEVLKNIKDYCSNHLQESLDSEPPVFLVSNVDISKYDFPKLETKLLQDLPAHKRHVFSLSLQSLTEATINYKRDSLKQKVFLEAMKAGALATIPLGGMISDILENLDETFNLYRSYFGLDDASLENIAQDLNMSVDDFKVHLRFPHLFAEHNDESLEDKLFKYIKHISSVTGGPVAAVTYYRMAYYLQNLFLDTAANDAIALLNSKALFEKKVGPYISEPPEYWEA

The chains behind the UniProt entries cited, without tags or fusion partners. Residues count along the entry.
UniProt Q9EP73, residues 19-290: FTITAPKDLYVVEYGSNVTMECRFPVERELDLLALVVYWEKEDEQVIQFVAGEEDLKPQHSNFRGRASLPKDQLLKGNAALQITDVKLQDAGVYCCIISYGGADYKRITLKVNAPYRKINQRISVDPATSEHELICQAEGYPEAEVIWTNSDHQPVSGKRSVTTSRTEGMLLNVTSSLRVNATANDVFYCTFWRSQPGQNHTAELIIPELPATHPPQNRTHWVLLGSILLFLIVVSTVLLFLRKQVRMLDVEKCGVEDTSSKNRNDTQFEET
UniProt Q99K28: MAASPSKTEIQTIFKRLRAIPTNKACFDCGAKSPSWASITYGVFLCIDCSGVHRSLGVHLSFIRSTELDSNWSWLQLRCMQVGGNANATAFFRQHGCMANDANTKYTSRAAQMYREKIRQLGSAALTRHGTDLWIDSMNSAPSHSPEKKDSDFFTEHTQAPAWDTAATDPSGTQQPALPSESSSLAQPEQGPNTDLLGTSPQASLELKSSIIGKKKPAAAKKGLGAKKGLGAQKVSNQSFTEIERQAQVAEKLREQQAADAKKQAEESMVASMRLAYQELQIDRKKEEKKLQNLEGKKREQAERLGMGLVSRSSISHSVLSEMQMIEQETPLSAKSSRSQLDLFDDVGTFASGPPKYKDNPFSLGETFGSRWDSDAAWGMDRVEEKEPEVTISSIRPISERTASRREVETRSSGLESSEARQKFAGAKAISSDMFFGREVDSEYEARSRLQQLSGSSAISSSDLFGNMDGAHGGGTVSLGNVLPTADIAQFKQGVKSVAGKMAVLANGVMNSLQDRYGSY
UniProt Q60715, residues 18-534: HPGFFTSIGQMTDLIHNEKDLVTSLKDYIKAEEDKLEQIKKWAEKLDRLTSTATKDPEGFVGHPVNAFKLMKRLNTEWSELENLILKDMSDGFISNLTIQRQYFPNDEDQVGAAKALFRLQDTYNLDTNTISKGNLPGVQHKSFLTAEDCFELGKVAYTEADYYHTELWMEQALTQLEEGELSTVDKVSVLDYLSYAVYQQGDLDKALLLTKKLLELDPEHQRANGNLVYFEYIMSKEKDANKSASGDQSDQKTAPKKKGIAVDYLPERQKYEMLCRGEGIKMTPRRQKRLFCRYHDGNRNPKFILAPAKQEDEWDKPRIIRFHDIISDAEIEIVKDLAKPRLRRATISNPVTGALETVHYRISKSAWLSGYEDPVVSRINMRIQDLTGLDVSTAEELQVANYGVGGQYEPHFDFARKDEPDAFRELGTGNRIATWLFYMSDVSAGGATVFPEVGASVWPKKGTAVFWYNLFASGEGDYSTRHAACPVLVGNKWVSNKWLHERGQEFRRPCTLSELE
UniProt Q9D8S3: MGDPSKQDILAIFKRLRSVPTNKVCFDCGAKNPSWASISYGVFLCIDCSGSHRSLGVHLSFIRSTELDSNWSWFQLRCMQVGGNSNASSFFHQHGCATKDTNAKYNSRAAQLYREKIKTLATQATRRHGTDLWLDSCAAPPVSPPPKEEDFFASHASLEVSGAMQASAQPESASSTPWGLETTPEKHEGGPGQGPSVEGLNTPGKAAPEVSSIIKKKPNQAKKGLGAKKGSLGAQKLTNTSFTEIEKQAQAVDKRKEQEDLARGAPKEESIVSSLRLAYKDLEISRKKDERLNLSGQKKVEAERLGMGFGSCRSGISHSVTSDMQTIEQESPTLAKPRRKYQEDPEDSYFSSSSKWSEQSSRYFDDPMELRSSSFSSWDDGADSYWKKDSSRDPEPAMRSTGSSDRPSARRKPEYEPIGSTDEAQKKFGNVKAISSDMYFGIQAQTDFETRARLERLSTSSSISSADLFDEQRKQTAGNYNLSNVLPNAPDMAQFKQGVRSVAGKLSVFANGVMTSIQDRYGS
UniProt Q6PF93: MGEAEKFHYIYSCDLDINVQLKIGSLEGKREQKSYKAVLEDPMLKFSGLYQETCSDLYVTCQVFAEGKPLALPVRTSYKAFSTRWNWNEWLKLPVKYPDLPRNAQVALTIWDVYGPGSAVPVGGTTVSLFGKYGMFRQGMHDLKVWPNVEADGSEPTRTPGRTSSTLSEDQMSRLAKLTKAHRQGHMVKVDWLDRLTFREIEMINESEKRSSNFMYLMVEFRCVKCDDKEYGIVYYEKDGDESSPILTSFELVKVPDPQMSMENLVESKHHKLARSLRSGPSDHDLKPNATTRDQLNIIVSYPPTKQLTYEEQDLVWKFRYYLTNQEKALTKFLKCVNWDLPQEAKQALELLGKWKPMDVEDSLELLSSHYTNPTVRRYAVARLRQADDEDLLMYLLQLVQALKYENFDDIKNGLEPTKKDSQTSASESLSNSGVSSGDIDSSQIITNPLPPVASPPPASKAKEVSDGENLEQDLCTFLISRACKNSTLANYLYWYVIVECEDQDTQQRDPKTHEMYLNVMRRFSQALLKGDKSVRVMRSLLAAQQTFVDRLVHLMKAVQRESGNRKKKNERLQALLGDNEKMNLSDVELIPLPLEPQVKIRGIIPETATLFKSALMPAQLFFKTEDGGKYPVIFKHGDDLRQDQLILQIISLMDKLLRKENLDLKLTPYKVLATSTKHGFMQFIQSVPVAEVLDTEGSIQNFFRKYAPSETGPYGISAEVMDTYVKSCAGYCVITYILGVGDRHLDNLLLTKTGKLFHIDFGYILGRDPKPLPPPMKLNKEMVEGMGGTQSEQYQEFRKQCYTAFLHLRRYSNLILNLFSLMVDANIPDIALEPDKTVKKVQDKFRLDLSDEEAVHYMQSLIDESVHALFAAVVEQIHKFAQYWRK
UniProt D3YYU8: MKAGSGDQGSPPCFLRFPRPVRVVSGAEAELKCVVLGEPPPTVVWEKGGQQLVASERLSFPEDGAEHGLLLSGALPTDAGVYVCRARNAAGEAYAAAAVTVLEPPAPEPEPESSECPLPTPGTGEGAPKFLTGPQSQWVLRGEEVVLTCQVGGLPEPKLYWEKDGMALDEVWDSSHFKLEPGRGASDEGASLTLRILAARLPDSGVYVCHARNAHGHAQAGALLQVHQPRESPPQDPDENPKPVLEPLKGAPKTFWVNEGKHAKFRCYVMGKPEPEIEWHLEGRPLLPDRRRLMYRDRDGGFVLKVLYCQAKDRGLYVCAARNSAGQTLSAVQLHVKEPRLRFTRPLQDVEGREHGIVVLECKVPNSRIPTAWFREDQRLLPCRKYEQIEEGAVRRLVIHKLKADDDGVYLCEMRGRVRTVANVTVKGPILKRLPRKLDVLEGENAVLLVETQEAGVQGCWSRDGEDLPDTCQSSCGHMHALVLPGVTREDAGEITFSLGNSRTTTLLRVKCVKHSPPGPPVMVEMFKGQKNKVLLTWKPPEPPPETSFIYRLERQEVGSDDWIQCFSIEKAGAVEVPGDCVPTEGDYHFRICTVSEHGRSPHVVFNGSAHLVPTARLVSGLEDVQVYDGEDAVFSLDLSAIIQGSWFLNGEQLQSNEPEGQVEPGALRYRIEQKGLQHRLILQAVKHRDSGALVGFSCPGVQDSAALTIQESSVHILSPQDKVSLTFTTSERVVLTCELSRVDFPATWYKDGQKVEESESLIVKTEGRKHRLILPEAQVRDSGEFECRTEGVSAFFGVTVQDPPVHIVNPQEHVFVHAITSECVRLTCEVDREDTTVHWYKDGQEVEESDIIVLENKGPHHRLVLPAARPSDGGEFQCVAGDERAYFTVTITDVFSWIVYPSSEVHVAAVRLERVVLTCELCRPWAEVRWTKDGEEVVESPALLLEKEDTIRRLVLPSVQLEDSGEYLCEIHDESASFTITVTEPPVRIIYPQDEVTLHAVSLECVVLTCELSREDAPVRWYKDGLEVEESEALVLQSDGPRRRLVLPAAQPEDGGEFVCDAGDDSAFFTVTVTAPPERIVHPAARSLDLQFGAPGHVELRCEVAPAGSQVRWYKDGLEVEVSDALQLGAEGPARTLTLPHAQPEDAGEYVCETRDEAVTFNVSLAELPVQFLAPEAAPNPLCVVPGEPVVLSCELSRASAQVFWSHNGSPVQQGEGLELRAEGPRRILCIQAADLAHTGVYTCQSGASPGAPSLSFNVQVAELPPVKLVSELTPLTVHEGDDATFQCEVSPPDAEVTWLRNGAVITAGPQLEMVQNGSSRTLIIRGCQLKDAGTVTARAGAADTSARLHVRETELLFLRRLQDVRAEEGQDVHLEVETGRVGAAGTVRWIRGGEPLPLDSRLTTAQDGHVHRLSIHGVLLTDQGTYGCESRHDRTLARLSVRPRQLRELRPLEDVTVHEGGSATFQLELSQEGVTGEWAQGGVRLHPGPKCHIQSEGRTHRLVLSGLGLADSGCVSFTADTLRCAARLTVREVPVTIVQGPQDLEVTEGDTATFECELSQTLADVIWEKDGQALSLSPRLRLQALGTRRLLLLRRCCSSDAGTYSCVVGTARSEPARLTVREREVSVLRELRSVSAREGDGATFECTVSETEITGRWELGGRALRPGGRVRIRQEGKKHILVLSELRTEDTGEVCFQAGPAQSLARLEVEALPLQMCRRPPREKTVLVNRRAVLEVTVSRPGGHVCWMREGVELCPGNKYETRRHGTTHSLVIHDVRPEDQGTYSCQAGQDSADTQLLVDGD
UniProt P61750: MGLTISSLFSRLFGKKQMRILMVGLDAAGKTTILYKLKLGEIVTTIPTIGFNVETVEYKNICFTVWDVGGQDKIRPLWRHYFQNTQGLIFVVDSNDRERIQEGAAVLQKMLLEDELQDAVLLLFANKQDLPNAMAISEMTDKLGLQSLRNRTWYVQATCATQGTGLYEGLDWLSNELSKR
UniProt Q80SW1: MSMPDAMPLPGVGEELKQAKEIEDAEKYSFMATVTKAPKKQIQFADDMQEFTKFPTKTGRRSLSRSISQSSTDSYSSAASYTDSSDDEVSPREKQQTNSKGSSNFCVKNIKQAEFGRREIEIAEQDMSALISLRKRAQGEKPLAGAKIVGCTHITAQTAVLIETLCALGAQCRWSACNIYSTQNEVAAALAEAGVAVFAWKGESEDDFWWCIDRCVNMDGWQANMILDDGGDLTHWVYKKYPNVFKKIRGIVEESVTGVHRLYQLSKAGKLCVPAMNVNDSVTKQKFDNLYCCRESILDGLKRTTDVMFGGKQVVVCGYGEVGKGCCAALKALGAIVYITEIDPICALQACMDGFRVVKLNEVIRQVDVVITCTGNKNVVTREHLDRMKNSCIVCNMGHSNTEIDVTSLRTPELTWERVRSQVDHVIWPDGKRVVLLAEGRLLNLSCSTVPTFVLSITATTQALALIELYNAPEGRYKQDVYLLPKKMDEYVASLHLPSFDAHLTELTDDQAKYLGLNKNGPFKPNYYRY
UniProt Q8K0F1: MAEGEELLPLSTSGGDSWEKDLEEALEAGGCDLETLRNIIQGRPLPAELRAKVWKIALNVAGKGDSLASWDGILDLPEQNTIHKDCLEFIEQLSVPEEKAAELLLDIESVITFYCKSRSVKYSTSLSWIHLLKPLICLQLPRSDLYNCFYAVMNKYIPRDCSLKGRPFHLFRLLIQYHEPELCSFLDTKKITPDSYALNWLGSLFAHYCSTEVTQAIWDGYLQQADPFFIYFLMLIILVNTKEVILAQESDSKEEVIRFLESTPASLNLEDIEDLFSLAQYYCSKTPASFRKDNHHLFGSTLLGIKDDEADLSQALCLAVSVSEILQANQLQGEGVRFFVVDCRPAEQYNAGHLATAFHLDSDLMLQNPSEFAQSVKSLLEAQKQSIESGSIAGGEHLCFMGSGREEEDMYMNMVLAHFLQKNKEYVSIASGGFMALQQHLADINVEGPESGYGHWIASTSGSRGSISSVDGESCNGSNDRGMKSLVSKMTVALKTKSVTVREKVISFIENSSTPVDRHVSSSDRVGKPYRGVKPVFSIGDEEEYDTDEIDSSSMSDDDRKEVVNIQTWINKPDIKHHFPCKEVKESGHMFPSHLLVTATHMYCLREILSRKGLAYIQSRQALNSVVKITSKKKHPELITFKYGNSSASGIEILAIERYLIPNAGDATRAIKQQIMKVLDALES
UniProt Q9EPJ9: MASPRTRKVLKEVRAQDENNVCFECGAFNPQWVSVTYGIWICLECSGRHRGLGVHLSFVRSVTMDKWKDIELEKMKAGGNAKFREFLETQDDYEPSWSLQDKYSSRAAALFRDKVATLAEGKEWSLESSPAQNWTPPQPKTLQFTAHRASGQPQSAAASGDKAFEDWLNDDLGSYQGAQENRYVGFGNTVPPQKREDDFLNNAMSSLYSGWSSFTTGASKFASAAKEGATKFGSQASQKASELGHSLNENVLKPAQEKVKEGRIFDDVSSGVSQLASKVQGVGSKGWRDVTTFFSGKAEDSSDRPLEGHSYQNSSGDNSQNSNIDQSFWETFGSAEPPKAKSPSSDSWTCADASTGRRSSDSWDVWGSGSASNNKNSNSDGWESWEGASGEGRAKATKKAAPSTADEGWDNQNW

These are yes or no findings as the source states them, for the method shown. In cells and extracts the contact can be indirect. Here binding means that the protein was enriched with, or labelled near, the bait; the list need not be complete.

The target in the experiment is WT PD-L1 (programmed death ligand 1) tagged with GFP (mouse) (UniProt Q9EP73). Put plainly: affinity purification with mass spectrometry; GFP-tagged PD-L1 precipitated from SVEC4-10 lysate overnight with GST-tagged anti-GFP nanobody on GST beads, washed 4x in TBS with 0.1% Tween-20; cells with or without sodium vanadate; in-gel trypsin digest, LC-MS/MS; N = 6 samples per cell type.
On to “RuvB Like AAA ATPase 2 (from UniProt Q9WTM5 1-463)”, for which the binding result is recorded as “binds”.

For “ADP-ribosylation factor GTPase-activating protein 2 (from UniProt Q99K28 1-520)”, the binding result was “binds”.

For the molecule “Prolyl 4-Hydroxylase Subunit Alpha 1 (from UniProt Q60715 18-534)”, the binding entry is on record as “binds”.

For the molecule Arhgap5 (from UniProt P97393 1-1503), the binding result is “binds”. Take “ADP-ribosylation factor GTPase-activating protein 3 (from UniProt Q9D8S3 1-523)”: the binding result is recorded as “binds”. Take “Signal transducer and activator of transcription 3 (from UniProt P42227 1-770)”: the binding entry is recorded as “binds”. Next, Paxillin (from UniProt Q8VI36 1-591): “binds”. As for PIK3CB (from UniProt Q8BTI9 1-1064), the binding entry is “binds”. As for PIK3C3 (from UniProt Q6PF93 1-887), the binding result is listed as “binds”. Next, “Obscurin Like Cytoskeletal Adaptor 1 (from UniProt D3YYU8 1-1804)”: “binds”; “ADP ribosylation factor4 (from UniProt P61750 1-180)”: “binds”; “Brefeldin A-inhibited guanine nucleotide-exchange protein 2 (from UniProt A2A5R2 1-1792)”: “binds”. For “Salt Inducible Kinase 2 (from UniProt Q8CFH6 1-931)”, the binding result is reported as “binds”.

As for “Adenosylhomocysteinase Like 1 (from UniProt Q80SW1 1-530)”, the binding result is listed as “binds”. On to “TBC1 Domain Family Member 23 (from UniProt Q8K0F1 1-684)”, for which the binding result is “binds”. With “ADP-ribosylation factor GTPase-activating protein 1 (from UniProt Q9EPJ9 1-414)”, the binding result is listed as “binds”. With B1, the binding entry was “binds”.

As to B2, the binding result is recorded as “binds”.

The values are drawn from paper PMC9761386.
